The assay addresses T1, LexA-ADAP-C (aa 486-783), two-hybrid bait without active Fyn kinase (human) (UniProt O15117).
T1 sequence: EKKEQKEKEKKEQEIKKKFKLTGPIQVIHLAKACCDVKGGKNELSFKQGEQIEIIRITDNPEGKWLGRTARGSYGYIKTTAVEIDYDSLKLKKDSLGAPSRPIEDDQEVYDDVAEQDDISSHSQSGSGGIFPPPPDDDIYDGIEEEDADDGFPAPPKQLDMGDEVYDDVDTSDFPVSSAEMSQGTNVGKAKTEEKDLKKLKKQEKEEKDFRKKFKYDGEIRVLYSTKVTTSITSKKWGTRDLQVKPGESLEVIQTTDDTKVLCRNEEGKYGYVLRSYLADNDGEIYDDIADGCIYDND
Kind of assay: two-hybrid; LexA-ADAP-C bait without active Fyn kinase; Gal4-AD preys; growth on SD4.

Protein sequences, listed by entry. Tags and fused reporters are not part of them. Lines headed by an entry give the natural chain unless they say otherwise; changes in a name come on top.
UniProt P50552: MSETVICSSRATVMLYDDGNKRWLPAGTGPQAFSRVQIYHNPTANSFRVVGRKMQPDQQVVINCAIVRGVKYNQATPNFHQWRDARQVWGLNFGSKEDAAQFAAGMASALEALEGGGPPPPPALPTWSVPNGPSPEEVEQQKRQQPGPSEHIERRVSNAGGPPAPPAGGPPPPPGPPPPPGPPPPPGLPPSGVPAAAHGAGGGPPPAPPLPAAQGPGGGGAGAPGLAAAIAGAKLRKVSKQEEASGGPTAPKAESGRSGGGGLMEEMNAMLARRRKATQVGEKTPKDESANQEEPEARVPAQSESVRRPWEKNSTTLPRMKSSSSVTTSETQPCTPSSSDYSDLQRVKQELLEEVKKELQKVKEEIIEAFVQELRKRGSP

This note sets out measurements from publication PMC2908683.

No constants are given. Whether binding was seen depends on the method and setting. Binding can be weak; no strength is given.

“EVH1 domain of VASP, two-hybrid prey (from UniProt P50552) (domain or fragment)”: the binding result is given as “binds”.
